Measurements published in article PMC11948057.

By UniProt entry, the sequences of proteins in these tests, tags left out. Where a name states a change or a piece, a line headed by the entry shows the natural chain unless it says otherwise.
UniProt Q6K3B2: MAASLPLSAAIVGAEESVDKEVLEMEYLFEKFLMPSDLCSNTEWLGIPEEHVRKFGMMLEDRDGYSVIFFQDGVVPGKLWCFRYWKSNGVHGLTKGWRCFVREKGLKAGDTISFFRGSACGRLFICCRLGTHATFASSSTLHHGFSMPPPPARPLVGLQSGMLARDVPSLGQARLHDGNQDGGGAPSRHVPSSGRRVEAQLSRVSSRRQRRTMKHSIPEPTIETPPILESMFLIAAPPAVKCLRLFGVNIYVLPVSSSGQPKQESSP
UniProt Q336P5: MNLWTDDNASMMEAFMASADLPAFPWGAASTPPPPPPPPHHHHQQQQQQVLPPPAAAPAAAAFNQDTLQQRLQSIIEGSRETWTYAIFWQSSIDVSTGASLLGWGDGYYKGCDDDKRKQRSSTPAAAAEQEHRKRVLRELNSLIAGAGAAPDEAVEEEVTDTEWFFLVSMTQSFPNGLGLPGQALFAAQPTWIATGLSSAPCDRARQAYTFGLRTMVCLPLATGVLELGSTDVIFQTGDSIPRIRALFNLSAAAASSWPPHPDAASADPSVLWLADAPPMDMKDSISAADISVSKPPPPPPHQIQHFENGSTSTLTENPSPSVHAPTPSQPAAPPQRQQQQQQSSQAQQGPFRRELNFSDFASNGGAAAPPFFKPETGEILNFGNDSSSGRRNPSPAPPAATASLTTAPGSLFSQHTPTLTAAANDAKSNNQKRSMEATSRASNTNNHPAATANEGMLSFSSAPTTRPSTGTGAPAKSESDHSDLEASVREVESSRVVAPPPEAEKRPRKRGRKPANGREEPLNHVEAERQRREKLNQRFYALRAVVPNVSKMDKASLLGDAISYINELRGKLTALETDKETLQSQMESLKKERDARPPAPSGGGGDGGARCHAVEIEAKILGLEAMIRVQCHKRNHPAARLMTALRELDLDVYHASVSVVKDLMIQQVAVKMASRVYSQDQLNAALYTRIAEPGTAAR

Biological target: OsRAV15-MYC in transgenic rice (OsRAV15-2#) (rice) (UniProt Q6K3B2)
Assay: affinity purification with mass spectrometry; IP-MS from NIP and OsRAV15 overexpressing rice plants

OsMYC2 (endogenous in rice) (from UniProt Q336P5 1-699)
binding: binds

No constants are given. Whether binding was seen depends on the method and setting. In cells and extracts the contact can be indirect. A yes stands for co-enrichment or nearness to the bait. Other partners may have been found.
